# For at least one compound, name, drawing or mass did not settle the structure.
# Target: muscarinic receptors (cerebral cortex)
# Experiment: Muscarinic receptor binding (inhibition of specific 3H-N-methylscopolamine binding), cerebral cortex
# Design: species or system rat (male Sprague-Dawley)
# Settings: rat cerebral cortex homogenate 1:3000, 3H-NMS, 30° C., 45 minutes; read-out: Receptor Binding Tests IC50, Cortex
# Procedure: Determination of the IC50 value
# The organ donors were male Sprague-Dawley rats weighing from 180 to 220 gm. After the removal of the stomach and cerebral cortex, all the other steps were carried out in ice-cold HepesHCl buffer (pH 7.4:100 m molar NaCl, 10 m molr MgCl2). Smooth muscle of the fundic section of the stomach was separated from the gastric mucosa and subjected to preliminary homogenization. All the organs were then homogenized in a potter apparatus.
# For the binding test, the homogenized organ preparations were diluted as follows:
# The homogenized organ preparations were incubated in an Eppendorf centrifugal tube at 30° C. with a specific concentration of the radioligand and a concentration series of the non-radioactive test substances. The period of incubation was 45 minutes. 0.3N molar ^3 H-N-methylscopolamine (^3 H-NMS) was used as the radioligand. After the incubation had been stopped by centrifuging at 14,000 g, the radioactivity in the pellet was determined. It represents the sum of specific and non-specific binding of ^3 H-NMS. The proportion of non-specific binding was defined as the radioactivity which was bound in the presence of 1μ molar quinuclidinyl benzylate. Four measurements were taken in each case. The IC50 values of the non-labelled test substances were determined graphically. […]
smiles,measurement,value
"CN1CCN(CC(=O)C2c3ccccc3NC(=O)c3ccccc32)CC1 (stereo not shown) [C, 5,11-Dihydro-[(4-methyl-1-piperazinyl)-acetyl]-6H-dibenz[b,e]azepin-6-one]",IC50,0.03 µM

# Reference: patent publication US4567178A, “Substituted 5,11-dihydro-6H-dibenz[b,e]azepin-6-ones and pharmaceutical compositions containing same” (Dr. Karl Thomae GmbH, priority 1984, dated 1986)
